# These are yes or no findings as the source states them, for the method shown. Some results given as binding are weak or reduced against the parent protein; the word gives no strength.
# Protein sequences, listed by entry. Tags and fused reporters are not part of them. Residues count along the entry.
# UniProt F5HB81, residues 27-845: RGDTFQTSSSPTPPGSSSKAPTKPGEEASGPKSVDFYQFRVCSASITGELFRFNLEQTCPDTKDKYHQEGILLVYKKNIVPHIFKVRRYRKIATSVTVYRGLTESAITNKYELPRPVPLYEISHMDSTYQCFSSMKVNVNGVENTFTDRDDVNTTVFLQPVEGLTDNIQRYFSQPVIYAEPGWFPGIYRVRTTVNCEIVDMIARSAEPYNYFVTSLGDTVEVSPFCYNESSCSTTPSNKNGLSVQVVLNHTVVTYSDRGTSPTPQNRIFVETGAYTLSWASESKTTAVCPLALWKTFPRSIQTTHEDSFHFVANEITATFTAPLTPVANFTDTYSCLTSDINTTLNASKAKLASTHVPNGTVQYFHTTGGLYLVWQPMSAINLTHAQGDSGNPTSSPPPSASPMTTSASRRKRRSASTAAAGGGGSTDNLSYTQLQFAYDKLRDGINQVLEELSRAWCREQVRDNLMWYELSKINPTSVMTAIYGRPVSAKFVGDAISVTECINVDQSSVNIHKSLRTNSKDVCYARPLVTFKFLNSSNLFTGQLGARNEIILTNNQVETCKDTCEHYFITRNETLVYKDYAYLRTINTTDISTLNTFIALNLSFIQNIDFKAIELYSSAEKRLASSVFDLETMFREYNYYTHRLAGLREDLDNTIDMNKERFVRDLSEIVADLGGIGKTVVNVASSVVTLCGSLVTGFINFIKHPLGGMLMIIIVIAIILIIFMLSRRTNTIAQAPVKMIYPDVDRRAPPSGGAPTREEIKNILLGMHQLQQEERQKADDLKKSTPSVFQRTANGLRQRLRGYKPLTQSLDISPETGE
# Target: KSHV fusion protein gB (postfusion conformation, on the virion envelope) (Kaposi's sarcoma-associated herpesvirus (KSHV), BAC16) (UniProt F5HB81)
# Assay: cryo-EM structure
substance,measurement,value
"KSHV fusion protein gB (postfusion conformation, on the virion envelope) (from UniProt F5HB81 27-845)",binding,binds
